Assay in all cases: co-IP; HEK293 cells transfected with HA-MAN1 and Flag-SMAD vectors, lysed 48 h later; immunoprecipitation with anti-HA (3F10), detection with anti-Flag (M2)
Assay [1] concerns the target T1, HA-MAN1 (full-length) (human) (UniProt Q9Y2U8).
T1 sequence: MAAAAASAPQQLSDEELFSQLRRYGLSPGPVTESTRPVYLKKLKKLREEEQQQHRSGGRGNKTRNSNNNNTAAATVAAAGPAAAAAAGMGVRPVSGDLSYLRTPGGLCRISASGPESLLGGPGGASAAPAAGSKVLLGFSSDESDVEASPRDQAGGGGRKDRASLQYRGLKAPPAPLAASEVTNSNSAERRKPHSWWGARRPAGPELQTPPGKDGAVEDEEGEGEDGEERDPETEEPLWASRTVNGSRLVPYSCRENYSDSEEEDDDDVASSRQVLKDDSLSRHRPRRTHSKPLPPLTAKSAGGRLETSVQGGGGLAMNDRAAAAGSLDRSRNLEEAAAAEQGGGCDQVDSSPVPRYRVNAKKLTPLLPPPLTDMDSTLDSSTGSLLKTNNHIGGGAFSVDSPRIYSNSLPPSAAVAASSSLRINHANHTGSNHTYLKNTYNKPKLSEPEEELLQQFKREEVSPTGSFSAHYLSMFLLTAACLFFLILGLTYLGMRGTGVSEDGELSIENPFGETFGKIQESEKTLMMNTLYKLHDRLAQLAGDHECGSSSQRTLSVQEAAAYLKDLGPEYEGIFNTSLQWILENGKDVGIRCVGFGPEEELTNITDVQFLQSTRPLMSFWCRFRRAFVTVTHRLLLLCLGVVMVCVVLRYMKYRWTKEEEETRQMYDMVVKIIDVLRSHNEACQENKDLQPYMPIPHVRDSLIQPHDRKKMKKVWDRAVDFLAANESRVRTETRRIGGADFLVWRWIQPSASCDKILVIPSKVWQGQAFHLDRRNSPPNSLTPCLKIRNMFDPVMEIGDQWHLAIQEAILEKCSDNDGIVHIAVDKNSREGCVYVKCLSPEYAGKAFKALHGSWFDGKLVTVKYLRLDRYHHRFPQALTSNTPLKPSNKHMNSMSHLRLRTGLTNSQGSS

Protein sequences, listed by entry. Tags and fused reporters are not part of them. Lines headed by an entry give the natural chain unless they say otherwise; changes in a name come on top. Chains listed by the source or under a name are the forms on record and can include a tag or linker.
Flag-SMAD1E (full-length) (Q15797-1, form named): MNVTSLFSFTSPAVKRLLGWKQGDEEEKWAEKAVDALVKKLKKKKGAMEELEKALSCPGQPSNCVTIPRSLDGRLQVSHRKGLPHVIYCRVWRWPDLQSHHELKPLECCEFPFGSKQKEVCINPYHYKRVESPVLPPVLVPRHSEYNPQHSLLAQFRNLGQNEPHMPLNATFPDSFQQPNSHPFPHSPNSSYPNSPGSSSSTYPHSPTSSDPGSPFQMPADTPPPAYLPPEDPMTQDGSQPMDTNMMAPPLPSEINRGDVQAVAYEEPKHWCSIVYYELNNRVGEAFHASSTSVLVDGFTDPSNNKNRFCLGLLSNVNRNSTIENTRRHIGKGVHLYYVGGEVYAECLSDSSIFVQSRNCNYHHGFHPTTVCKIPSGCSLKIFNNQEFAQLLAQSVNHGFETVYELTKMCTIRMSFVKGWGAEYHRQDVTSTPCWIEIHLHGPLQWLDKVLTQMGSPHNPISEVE

Assay [2] addresses T2, HA-MAN1 (full-length) F770A (human) (UniProt Q9Y2U8).
T2 sequence: T1 sequence with F770A

The target in assay [3] is T3, HA-MAN1 (full-length) L860A (human) (UniProt Q9Y2U8).
T3 sequence: T1 sequence with L860A

The target in assay [4] is T4, HA-MAN1 (full-length) W855A (human) (UniProt Q9Y2U8).
T4 sequence: T1 sequence with W855A

Positions count from the first letter of the chain named. Results are given in words; binding and its absence hold for the method and conditions named. In cells and extracts the contact can be indirect. Some entries that bind do so weakly or less than the wild type. Sequences can lack the tags named with a protein.

On to “Flag-SMAD1E (full-length) (from UniProt Q15797-1 1-465)”, for which the binding entry in assay [1] is on record as “binds”; in assay [2], “no binding”; in assay [3], “no binding”; in assay [4] it was “no binding”.
